Measurements from the supplement of paper PMC4604168 (melanoma cell lines).
This is one part of the list. Single values are uncertain, as repeats are few or missing.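 The apoptosis fraction was the count of cleaved-PARP antibody-stained nuclei relative to all DNA-stained nuclei, imaged in 1,536-well plates. Screening doses were set so most cells survived, and baseline and induced cleaved-PARP levels vary greatly across cell lines.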

What follows are compounds tested on MeWo (assay: cleaved PARP positive nuclei fraction relative to DMSO control; melanoma cells; higher = more apoptosis). Details: library dose: low library concentration; 72 h.

SMILES | cleaved PARP positive nuclei fraction [%]
O=C(CCCCCCC(=O)Nc1ccccc1)NO [vorinostat] + COc1ccc2c(c1)CCC1C2CCC2(C)C(NCCCCCCN3C(=O)C=CC3=O)CCC12 [U73122] (first compound 0.08 µM, partner dose 0.4 µM) | 105
Cn1nnc2c(C(N)=O)ncn2c1=O [temozolomide] + COc1ccc(COc2ccc(Cc3cnc(N)nc3N)cc2OC)cc1 [GW2580] (first compound 2 µM, partner dose 1 µM) | 105
OCCn1cc(-c2cnc3nnn(Cc4ccc5ncccc5c4)c3n2)cn1 + COc1ccc(-c2ccc3c(N4CCOCC4)nc(N4C[C@@H](C)O[C@@H](C)C4)nc3n2)cc1CO [KU0063794] (first compound 1 µM, partner dose 0.02 µM) | 111
Cc1ccc(NC(=O)c2cccc(N(C)C)c2)cc1NC(=O)c1ccc(O)cc1 + Cn1cc(/C=C2\C(=O)Nc3cccnc32)c2ccccc21 [GW441756] (first compound 2 µM, partner dose 0.4 µM) | 50.8
Cc1ccc(NC(=O)c2cccc(N(C)C)c2)cc1NC(=O)c1ccc(O)cc1 + CCCCCCCCCCCC1=C(O)C(=O)C=C(O)C1=O [Embelin] (first compound 2 µM, partner dose 1.2 µM) | 27.2
Cn1cncc1[C@@](N)(c1ccc(Cl)cc1)c1ccc2c(c1)c(-c1cccc(Cl)c1)cc(=O)n2C [tipifarnib] + Cc1cc([N+](=O)[O-])ccc1NS(=O)(=O)c1cc(Cl)ccc1Cl [FH535] (first compound 0.01 µM, partner dose 1 µM) | 74.5
Cn1c(Nc2ccc(C(F)(F)F)cc2)nc2cc(Oc3ccnc(-c4ncc(C(F)(F)F)[nH]4)c3)ccc21 + COc1ccc2c(c1)CCC1C2CCC2(C)C(NCCCCCCN3C(=O)C=CC3=O)CCC12 [U73122] (first compound 0.08 µM, partner dose 0.4 µM) | 52.7
Cn1cncc1[C@@](N)(c1ccc(Cl)cc1)c1ccc2c(c1)c(-c1cccc(Cl)c1)cc(=O)n2C [tipifarnib] + Oc1cc(-c2nc(-c3ccccc3)[nH]c2-c2ccncc2)ccc1Cl [L779450] (first compound 0.01 µM, partner dose 0.2 µM) | 58.7
OCCn1cc(-c2cnc3nnn(Cc4ccc5ncccc5c4)c3n2)cn1 + O=C(O)C(=O)Nc1sc2c(c1C(=O)O)CCNC2 [TCS401] (first compound 1 µM, partner dose 1.66667 µM) | 50.3
C=CCn1c(=O)c2cnc(Nc3ccc(N4CCN(C)CC4)cc3)nc2n1-c1cccc(C(C)(C)O)n1 + Oc1nc(-c2ccc(C(F)(F)F)cc2)nc2c1CSCC2 [XAV939] (first compound 0.02 µM, partner dose 2 µM) | 37.6
Nc1cccc2c1CN(C1CCC(=O)NC1=O)C2=O (stereo unspecified) [lenalidomide] + CCCCCCCCCCCC1=C(O)C(=O)C=C(O)C1=O [Embelin] (first compound 1 µM, partner dose 1.2 µM) | 45.6
C[C@@H]1CCN(C(=O)CC#N)C[C@@H]1N(C)c1ncnc2[nH]ccc12 + Oc1cc(-c2nc(-c3ccccc3)[nH]c2-c2ccncc2)ccc1Cl [L779450] (first compound 1 µM, partner dose 0.2 µM) | 56.5
Cc1cc(N2CCOCC2)cc2[nH]c(-c3c(NC[C@@H](O)c4cccc(Cl)c4)cc[nH]c3=O)nc12 + Cc1cc([N+](=O)[O-])ccc1NS(=O)(=O)c1cc(Cl)ccc1Cl [FH535] (first compound 0.2 µM, partner dose 1 µM) | 163
C=CCn1c(=O)c2cnc(Nc3ccc(N4CCN(C)CC4)cc3)nc2n1-c1cccc(C(C)(C)O)n1 + O=C1NC(=O)/C(=C/c2ccc(-c3ccc(F)cc3O)o2)S1 [AS252424] (first compound 0.02 µM, partner dose 1 µM) | 97.9
Cc1ccc(NC(=O)c2cccc(N(C)C)c2)cc1NC(=O)c1ccc(O)cc1 + N#Cc1c(O)c2c(-c3ccc(-c4ccccc4O)cc3)csc2[nH]c1=O [A769662] (first compound 2 µM, partner dose 2 µM) | 120
Cn1cncc1[C@@](N)(c1ccc(Cl)cc1)c1ccc2c(c1)c(-c1cccc(Cl)c1)cc(=O)n2C [tipifarnib] + CCN(CC)CCCCNc1ncc2cc(-c3cc(OC)cc(OC)c3)c(NC(=O)NC(C)(C)C)nc2n1 [PD173074] (first compound 0.01 µM, partner dose 0.1 µM) | 106
